Assay results reported in PubChem BioAssay AID624297 (National Center for Advancing Translational Sciences (NCATS), 2012).
The campaign covered roughly 340,000 compounds. About 6,200 (1.8%) were called active. The inconclusive results got no clear call from the source; some entries with a clear call stand among them for comparison. Calls follow the shape of the dose curve; as a rule, active = well fitted activation curve with a large enough effect; inconclusive = small, poorly fitted or top-dose-only effect; inactive = no such curve, though single readings can be large or run the other way. Potencies beside an inconclusive call are fits to weak or partial responses and may not hold up.

Experiment: A quantitative high throughput screen for small molecules that induce DNA re-replication in SW480 colon adenocarcinoma cells. Also: nearly all actives have a fitted effect of over 55% in size. As to re-replication activation: % of control where 0% means no effect.
Settings: Hoechst DNA content imaging, 48 h; re-replication activation: at 46.1 µM (top of the series)
Method in brief: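 Hoechst fluorescence of nuclei (405 nm excitation, 500-530 nm emission) measured by plate-scanning imager after 48 hr compound exposure at 37 C; re-replication scored as increased number of nuclei with elevated intensity.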
Potency is read from the fitted curve at half-maximal effect.

Row | Compound | Potency | re-replication activation
1 | Cc1c(Cc2ccccc2)sc(/N=C/c2ccc3ccccc3c2)c1C(N)=O | active: 1.16 µM | 
2 | Cc1ccccc1OCC(=O)NCC(c1cccs1)N1CCOCC1 (stereo not drawn) | inconclusive: 18.4 µM [activator, partial curve, poor fit] | 
3 | COc1ccc(Cl)cc1C(=O)CSc1nnnn1C1CCCCC1 | inconclusive: 23.1 µM [activator, partial curve, poor fit] | 
4 | COc1ccc2oc(=Nc3cc(F)ccc3F)c(C(N)=O)cc2c1 | inconclusive: 13 µM [activator, partial curve] | 
5 | CSc1nc2nc(C)cc(-c3ccccc3)n2n1 | inconclusive: 0.103 µM [activator, full curve, poor fit] | 
6 | CCOC(=O)c1c(NC(=O)c2ccc(-n3cnnn3)cc2)sc2c1CCCC2 | inconclusive: 18.4 µM [activator, single point] | 
7 | COc1cc(/C=C/c2ccc3cccc(OC)c3n2)c(OC(C)=O)c([N+](=O)[O-])c1 | inconclusive: 16.4 µM [activator, partial curve] | 
8 | CCn1c(SCC(=O)Nc2ccc(N3CCOCC3)cc2)nnc1-c1ccc(OC)cc1 | inactive | 
9 | COc1cc(C(=O)N/C(=C\c2cn(C)c3ccccc23)C(=O)NCCCN2CCOCC2)cc(OC)c1OC | inconclusive: 29.1 µM [activator, single point] | 
10 | CC[C@@H](C)[C@@H](C(=O)N1CCN(C(=O)OC(C)(C)C)CC1)n1cc(CCCCNC(=O)OC(C)(C)C)nn1 | inactive | 
11 | CCc1ccc(-c2nc(CS(=O)CC(=O)O)c(C)o2)cc1 (stereo not drawn) | inconclusive: 16.4 µM [activator, single point] | 
12 | C=CCNC1=C(Cl)C(=O)c2ccccc2C1=O | inconclusive: 20.6 µM [activator, single point] | 
13 | COc1ccc([C@H]2CC(=O)C=C(c3ccccc3-c3ccccc3)C2)cc1 | inconclusive: 18.4 µM [activator, single point] | 
14 | CC1(C)C(C=C(Cl)Cl)C1C(=O)Nc1ccc([N+](=O)[O-])cc1 (stereo not drawn) | inconclusive: 29.1 µM [activator, single point] | 
15 | O=C(Nc1ccccc1)OC1CCC2CC1CCC2OC(=O)Nc1ccccc1 (stereo not drawn) | inconclusive: 18.4 µM [activator, partial curve, poor fit] | 
16 | COc1ccc(OCc2nnc(SCC(=O)Nc3nnc(C4CC4)s3)n2C)cc1 | inconclusive: 11.6 µM [activator, partial curve, poor fit] | 
17 | CSCCC(NC(=O)c1ccccc1)C(=O)NNC(=O)c1csc(N2CCOCC2)n1 (stereo not drawn) | inactive | 
18 | COc1ccc(CCNC(=O)c2ccc(CS(=O)(=O)c3ccc(Cl)cc3)o2)cc1OC | inconclusive: 16.4 µM [activator, partial curve, poor fit] | 
19 | CC(C)C[C@@H](COc1ccccc1)N1CCN(CCc2ccccc2)CCC1=O |  | inactive: -26.2% [at 9.22 µM]
20 | Cc1ccccc1CN1CCC(Oc2ccc(C(=O)NCc3ccccn3)cc2)CC1 | inactive | 
21 | COCCNS(=O)(=O)c1ccc(Cl)c(C(=O)NC2CCN(Cc3ccccc3)CC2)c1 | inactive | 
22 | Cc1cccc(C)c1NC(=S)N(c1ccccc1)C(C)C | inactive | 
23 | COC(=O)/C=C1\SC(=NC(=O)c2ccc(-c3ccccc3)cc2)NC1=O | inactive | 

Row | Compound | Potency | re-replication activation
24 | O=C(O)Cc1nc(-c2cccnc2)sc1-c1ccc(Br)cc1 | inconclusive: 25.9 µM [activator, single point] | 
25 | CC(=O)OCCCN1C(=O)c2ccc(Br)cc2C1=O | inactive | 
26 | N#Cc1c(NCCN)nc(-c2ccccc2)c2c1CCCC2 | inconclusive: 29.1 µM [activator, single point] | 
27 | COc1ccc(C(CNC(=O)c2oc3ccc(F)cc3c2C)N2CCCCC2)cc1 (stereo not drawn) | inconclusive: 29.1 µM [activator, single point] | 
28 | CCN(CC)S(=O)(=O)c1cccc(NC(=O)c2cc(-c3cccs3)nn2-c2ccccc2)c1 | active: 8.2 µM | 
29 | NC(=O)CC(NC(=O)Cc1ccc(Cl)cc1)c1ccc(NC2CC3CCC2C3)c([N+](=O)[O-])c1 (stereo not drawn) | inactive | 
30 | COc1cc(C(C)=O)ccc1OCC(=O)Nc1ccccc1N1CCCCC1 | inconclusive: 31.6 µM [activator, single point] | 
31 | O=C(NCc1nc2ccccc2[nH]1)c1cccs1 | inactive | 
32 | CC(C)(C)c1ccccc1NC(=O)c1cc(-c2ccncc2)nc2ccccc12 | inactive | 
33 | Cc1cc(C)nc(SCc2ccc(C(=O)N/N=C/C3CCCCC3)cc2)n1 | inconclusive: 6.51 µM [activator, single point] | 
34 | CCOCCOC(=O)Cn1cnc2scc(-c3ccc(C)cc3)c2c1=O | inactive | 
35 | Cc1c(C(=O)OCc2ccccc2)[nH]c2c1C(=O)CC(c1ccco1)C2 (stereo not drawn) | inconclusive: 2.31 µM [activator, full curve, poor fit] | 
36 | Cc1nc(-c2ccccc2)nc2sc(C(=O)c3ccc(F)cc3)c(N)c12 | active: 16.4 µM | 
37 | CN(C(=O)Nc1ccc(Cl)cc1Cl)[C@H]1c2cc(Br)ccc2OC[C@H]1CO | inconclusive: 29.1 µM [activator, single point] | 
38 | O=C(NCc1ccc(Cl)cc1)c1cc(=O)nc2sc(-c3ccccc3)nn12 | inconclusive: 14.1 µM [activator, partial curve, poor fit] | 
39 | N#CC1=C(N)Oc2c(ccc3cccnc23)C1c1ccccc1 (stereo not drawn) | active: 5.17 µM | 
40 | CC(C)(C)c1ccc(OCCC(=O)OCC(=O)NC(=O)NC2CCCC2)cc1 | inactive | 
41 | Cc1cccc(NC(=O)CCN2CCC(C(N)=O)CC2)c1 | inconclusive: 23.1 µM [activator, single point] | 
42 | COC(=O)c1c(NC(=O)CCl)sc(C(=O)N2CCOCC2)c1C | inconclusive: 20.6 µM [activator, single point] | 
43 | Cc1ccccc1NC(=O)CSc1cn[nH]n1 | inactive | 
44 | CC[n+]1c(C)n(C)c2cc(S(=O)(=O)N(C)C)ccc21 | inconclusive: 1.03 µM [activator, full curve, poor fit] | 
45 | COC(=O)[C@@]1(Cc2ccccc2)[C@H]2C(=O)N(C)C(=O)[C@H]2[C@H]2CN=C(SCc3ccc(C#N)cc3)N21 | active: 3.66 µM | 
46 | O=C(COc1ccccc1[N+](=O)[O-])Nc1ccc(NC(=O)c2cc3ccccc3o2)cc1 | inactive | 

Row | Compound | Potency | re-replication activation
47 | COCCN1C(=O)c2ccc(C(=O)Nc3nccs3)cc2C1=O | active: 1.16 µM | 
48 | Cc1ccc(CN2CCC(n3nccc3NC(=O)CCCc3ccccc3)CC2)o1 | inactive | 
49 | N#CC1CC(c2ccc([N+](=O)[O-])cc2)=NN1c1ccc([N+](=O)[O-])cc1 (stereo not drawn) | inconclusive: 13 µM [activator, partial curve, poor fit] | 
50 | O=C(C(=O)c1cc(Br)ccc1O)c1cc(Br)ccc1O | inconclusive: 16.4 µM [activator, single point] | 
51 | C=CCn1c(N)c(C(=O)OCC(C)C)c2nc3ccccc3nc21 | inconclusive: 20.6 µM [activator, partial curve, poor fit] | 
52 | CC(C)C1=CC2=CC[C@@H]3[C@](C)(CCC[C@@]3(C)C(=O)O)[C@H]2CC1 | inactive | 
53 | CC(C)Cc1ccc(C(C)C(N)=Nc2ccc(O)cc2)cc1 (stereo not drawn) | inconclusive: 29.1 µM [activator, single point] | 
54 | O=C(O)c1ccccc1/C=N/Nc1ccc(S(=O)(=O)N2CCOCC2)cc1[N+](=O)[O-] | inactive | 
55 | CC1=NN(Cc2ccccc2)C(=O)C1C(c1ccc(Cl)cc1)C(C#N)C#N (stereo not drawn) | inconclusive: 23.1 µM [activator, partial curve, poor fit] | 
56 | CN=C1c2c(-c3ccccc3)c3cc(OC)ccc3n2CCN1C | inconclusive: 16.4 µM [activator, single point] | 
57 | Cc1cc2c([nH]c3ccccc32)c(C)n1 | inactive | 
58 | COc1cc(C2c3[nH]c4ccccc4c3C[C@H]3C(=O)N(C4CC4)CC(=O)N23)ccc1OC(C)C (stereo partly drawn) | inactive | 
59 | CC(=O)Nc1nc(SCC(=O)NCc2ccc(F)cc2)[nH]c(=O)c1NC(=O)c1cccs1 | inconclusive: 6.51 µM [activator, single point] | 
60 | COc1ccc(CCNC(=O)/C=C/c2cc(OC)c(OC)c(OC)c2)cc1OC | inconclusive: 0.731 µM [activator, partial curve, poor fit] | 
61 | N#Cc1ccc(OCC(=O)Nc2ccc3[nH]c(=O)[nH]c3c2)cc1 | inconclusive: 0.146 µM [activator, partial curve, poor fit] | 
62 | Cc1ccc(C2C(C(=O)c3cccs3)=C(O)C(=O)N2c2ccc(S(N)(=O)=O)cc2)cc1 (stereo not drawn) | inconclusive: 23.1 µM [activator, single point] | 
63 | COCCn1c(=NC(=O)c2ccc(S(=O)(=O)N3CCCc4ccccc43)cc2)sc2cc(S(C)(=O)=O)ccc21 | inconclusive: 0.517 µM [activator, full curve, poor fit] | 
64 | CCC(=NCCc1c(C)[nH]c2ccc(OC(F)(F)F)cc12)C1=C(O)CC(c2ccccc2)CC1=O (stereo not drawn) | active: 11.6 µM | 
65 | Cc1cccc(NC(=S)N2CCC(C(=O)c3ccc(F)cc3)CC2)c1 | inconclusive: 29.1 µM [activator, single point] | 
66 | Cc1[nH]c(=O)[nH]c(=O)c1N1CCOCC1 | inconclusive: 6.51 µM [activator, partial curve, poor fit] | 
67 | Cc1ccc(C(=O)N2CCCCC2)cc1NC1=C(Cl)C(=O)N(Cc2ccccc2)C1=O | inconclusive: 29.1 µM [activator, single point] | 
68 | CCOC(=O)C1CCN(S(=O)(=O)c2ccc(C)c(C)c2)CC1 | inconclusive: 23.1 µM [activator, single point] | 

Reformatted in markdown: entries from further up

| Row | Compound | Potency | re-replication activation |
| --- | --- | --- | --- |
| 49 | N#CC1CC(c2ccc([N+](=O)[O-])cc2)=NN1c1ccc([N+](=O)[O-])cc1 (stereo not drawn) | inconclusive: 13 µM [activator, partial curve, poor fit] |  |
| 50 | O=C(C(=O)c1cc(Br)ccc1O)c1cc(Br)ccc1O | inconclusive: 16.4 µM [activator, single point] |  |
| 51 | C=CCn1c(N)c(C(=O)OCC(C)C)c2nc3ccccc3nc21 | inconclusive: 20.6 µM [activator, partial curve, poor fit] |  |
| 52 | CC(C)C1=CC2=CC[C@@H]3[C@](C)(CCC[C@@]3(C)C(=O)O)[C@H]2CC1 | inactive |  |
| 53 | CC(C)Cc1ccc(C(C)C(N)=Nc2ccc(O)cc2)cc1 (stereo not drawn) | inconclusive: 29.1 µM [activator, single point] |  |
| 54 | O=C(O)c1ccccc1/C=N/Nc1ccc(S(=O)(=O)N2CCOCC2)cc1[N+](=O)[O-] | inactive |  |
| 55 | CC1=NN(Cc2ccccc2)C(=O)C1C(c1ccc(Cl)cc1)C(C#N)C#N (stereo not drawn) | inconclusive: 23.1 µM [activator, partial curve, poor fit] |  |
| 56 | CN=C1c2c(-c3ccccc3)c3cc(OC)ccc3n2CCN1C | inconclusive: 16.4 µM [activator, single point] |  |
| 57 | Cc1cc2c([nH]c3ccccc32)c(C)n1 | inactive |  |
| 58 | COc1cc(C2c3[nH]c4ccccc4c3C[C@H]3C(=O)N(C4CC4)CC(=O)N23)ccc1OC(C)C (stereo partly drawn) | inactive |  |
| 59 | CC(=O)Nc1nc(SCC(=O)NCc2ccc(F)cc2)[nH]c(=O)c1NC(=O)c1cccs1 | inconclusive: 6.51 µM [activator, single point] |  |
| 60 | COc1ccc(CCNC(=O)/C=C/c2cc(OC)c(OC)c(OC)c2)cc1OC | inconclusive: 0.731 µM [activator, partial curve, poor fit] |  |
| 61 | N#Cc1ccc(OCC(=O)Nc2ccc3[nH]c(=O)[nH]c3c2)cc1 | inconclusive: 0.146 µM [activator, partial curve, poor fit] |  |
| 62 | Cc1ccc(C2C(C(=O)c3cccs3)=C(O)C(=O)N2c2ccc(S(N)(=O)=O)cc2)cc1 (stereo not drawn) | inconclusive: 23.1 µM [activator, single point] |  |
| 63 | COCCn1c(=NC(=O)c2ccc(S(=O)(=O)N3CCCc4ccccc43)cc2)sc2cc(S(C)(=O)=O)ccc21 | inconclusive: 0.517 µM [activator, full curve, poor fit] |  |
